Measured data: PubChem BioAssay AID1259425 (University of Nebraska Medical Center, 2018)

- Screen: 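Compare each knockdown with KSR1 silencing using changes in marker transcripts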 (primary screen)
- Cell system: HCT116 human colon cancer cells
- Knock-down reagent: siRNA pool against human genes, 50 nM siRNA
- Measured: 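After 50 nM siRNA pool, branched-DNA assay measures six marker transcripts per well, minus blank, normalised to the geometric mean of two housekeeping transcripts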
- Direction: BNIP3L mRNA: higher = more BNIP3L transcript after knockdown; NDRG1 mRNA: higher = more NDRG1 transcript after knockdown; BNIP3 mRNA: higher = more BNIP3 transcript after knockdown; ALDOC mRNA: higher = more ALDOC transcript after knockdown; ACSL5 mRNA: higher = more ACSL5 transcript after knockdown
In all, the deposit lists about 14,000 reagents; shown is an unselected part. Some reagents were tested in more than one well and are listed for each. Not stated in the record: the time to read-out.

target | BNIP3L mRNA, set 1 | NDRG1 mRNA, set 1 | BNIP3 mRNA, set 1 | ALDOC mRNA, set 1 | ACSL5 mRNA, set 1
CAPN11 | 0.0793 | 0.111 | 0.236 | 0.0278 | 0.125
BCL7A | 0.172 | 0.162 | 0.287 | 0.00775 | 0.295
VARS2 | 0.196 | 0.049 | 0.354 | 0.0969 | 0.202
DCUN1D5 | 0.0885 | 0.0686 | 0.216 | 0.0541 | 0.159
NPHP4 | 0.112 | 0.246 | 0.287 | 0.0294 | 0.149
ADAMTS3 | 0.0627 | 0.14 | 0.229 | 0.0314 | 0.2
RCC1L | 0.209 | 0.291 | 0.202 | 0.0703 | 0.324
ZNF644 | 0.126 | 0.201 | 0.426 | 0.0275 | 0.167
ZNF644 | 0.202 | 0.141 | 0.258 | 0.0276 | 0.293
PLEKHO1 | 0.0356 | 0.0693 | 0.164 | 0.0127 | 0.0685
MMP26 | 0.115 | 0.0853 | 0.421 | 0.0861 | 0.133
GJC1 | 0.0943 | 0.0877 | 0.276 | 0.035 | 0.0489
THAP12 | 0.131 | 0.707 | 0.403 | 0.0246 | 0.277
HRK | 0.127 | 0.129 | 0.271 | 0.0293 | 0.101
GATA5 | 0.0569 | 0.0501 | 0.276 | 0.00656 | 0.0783
CYP8B1 | 0.0395 | 0.0677 | 0.355 | 0.00821 | 0.145
NR2F2 | 0.111 | 0.254 | 0.241 | 0.0761 | 0.129
CCDC70 | 0.0875 | 0.0545 | 0.275 | 0.0185 | 0.0985
SOS2 | 0.0594 | 0.23 | 0.149 | 0.029 | 0.225
TNFSF13B | 0.0892 | 0.104 | 0.22 | 0.0212 | 0.128
IFI44L | 0.247 | 0.245 | 0.446 | 0.0215 | 0.172
SLC22A7 | 0.0676 | 0.501 | 0.298 | 0.0321 | 0.367
SLC30A1 | 0.121 | 0.108 | 0.303 | 0.0391 | 0.138
ADH1C | 0.102 | 0.76 | 0.18 | 0.0169 | 0.257
VPS39 | 0.12 | 0.231 | 0.234 | 0.0179 | 0.261
AQP3 | 0.133 | 0.198 | 0.295 | 0.0183 | 0.177
MT1A | 0.115 | 0.0867 | 0.308 | 0.0215 | 0.114
TRUB2 | 0.211 | 0.124 | 0.24 | 0.0298 | 0.264
ARSJ | 0.231 | 0.228 | 0.423 | 0.0286 | 0.33
SPRTN | 0.094 | 0.265 | 0.281 | 0.0421 | 0.216
PPP1R2C | 0.113 | 0.192 | 0.262 | 0.0508 | 0.178
IL32 | 0.14 | 0.3 | 0.319 | 0.0257 | 0.141
ZGRF1 | 0.149 | 0.416 | 0.491 | 0.00838 | 0.304
OCIAD1 | 0.19 | 0.504 | 0.295 | 0.0475 | 0.317
FCER1A | 0.0517 | 0.202 | 0.175 | 0.0196 | 0.172
SPTLC3 | 0.112 | 0.373 | 0.283 | 0.0174 | 0.206
FBXL12 | 0.134 | 0.173 | 0.364 | 0.0279 | 0.282
ATP6AP1 | 0.402 | 0.25 | 0.404 | 0.119 | 0.141
ID3 | 0.11 | 0.163 | 0.375 | 0.0136 | 0.226
RAB32 | 0.092 | 0.0971 | 0.35 | 0.0128 | 0.296
YJU2B | 0.344 | 0.461 | 0.446 | 0.18 | 0.32
SLC4A3 | 0.119 | 0.198 | 0.385 | 0.00552 | 0.205
ZNF593 | 0.171 | 0.109 | 0.357 | 0.0244 | 0.206
BRIX1 | 0.198 | 0.406 | 0.367 | 0.031 | 0.273
BTG1 | 0.0852 | 0.145 | 0.232 | 0.0104 | 0.322
H4C12 | 0.112 | 0.156 | 0.283 | 0.0304 | 0.099
OPRPN | 0.0734 | 0.218 | 0.24 | 0.0215 | 0.235
CCS | 0.0767 | 0.375 | 0.263 | 0.0232 | 0.228
PALMD | 0.074 | 0.17 | 0.374 | 0.0729 | 0.167
BRDT | 0.0561 | 0.209 | 0.267 | 0.0159 | 0.2
BAZ1B | 0.16 | 0.437 | 0.173 | 0.0147 | 0.583
DYRK1A | 0.109 | 0.0898 | 0.258 | 0.00524 | 0.169
MED24 | 0.193 | 0.267 | 0.353 | 0.0335 | 0.12
WNT7B | 0.0834 | 0.292 | 0.156 | 0.0252 | 0.278
ALOX5AP | 0.0946 | 0.109 | 0.137 | 0.0146 | 0.0951
DCTN3 | 0.0545 | 0.151 | 0.236 | 0.00689 | 0.0912
TBX1 | 0.176 | 0.379 | 0.443 | 0.0453 | 0.254
SESN1 | 0.223 | 0.287 | 0.334 | 0.0633 | 0.178
ITM2B | 0.14 | 0.0809 | 0.33 | 0.0205 | 0.0643
DAZ3 | 0.0844 | 0.124 | 0.273 | 0.0106 | 0.116
TLE5 | 0.146 | 0.232 | 0.363 | 0.0331 | 0.167
SLC6A4 | 0.0884 | 0.0929 | 0.166 | 0.0483 | 0.0919
CCL21 | 0.052 | 0.146 | 0.237 | 0.0225 | 0.206

Part of the list above, showing only “BNIP3 mRNA, set 1”.
ATP6AP1 = 0.404
ID3 = 0.375
RAB32 = 0.35
YJU2B = 0.446
SLC4A3 = 0.385
ZNF593 = 0.357
BRIX1 = 0.367
BTG1 = 0.232
